Values of other authors in patent US11147778B2, “Siderophore-polymer conjugates for increasing bacterial sensitivity to antibiotics” (Wisconsin Alumni Research Foundation, priority 2016, dated 2021).
At least one compound was matched to its structure with a doubt left.

Legend:
Parameters in all cases: key: S = susceptible; I = intermediate; R = resistant
[1] = system: Pseudomonas aeruginosa 9139; settings: strain 9139; cited from earlier work
[2] = system: Pseudomonas aeruginosa 26975; settings: strain 26975; cited from earlier work
[3] = system: Pseudomonas aeruginosa 2638; settings: strain 2638; cited from earlier work
[4] = system: Pseudomonas aeruginosa 3071; settings: strain 3071; cited from earlier work
[5] = system: Pseudomonas aeruginosa 3070; settings: strain 3070; cited from earlier work
[6] = system: Pseudomonas aeruginosa 3068; settings: strain 3068; cited from earlier work
[7] = system: Pseudomonas aeruginosa 24530; settings: strain 24530; cited from earlier work
[8] = system: Pseudomonas aeruginosa 3076; settings: strain 3076; cited from earlier work
[9] = system: Pseudomonas aeruginosa 3072; settings: strain 3072; cited from earlier work
[10] = system: Pseudomonas aeruginosa 823; settings: strain 823; cited from earlier work

SMILES: C[C@@H](O)[C@H]1C(=O)N2C(C(=O)O)=C(SCCN=CN)C[C@H]12 [IPM, imipenem]
- Phenotype (drug resistance profile) [1]: S
- Phenotype (drug resistance profile) [2]: S
- Phenotype (drug resistance profile) [3]: DOR-R, IPM-R, MEM-R, FEP-R,
- Phenotype (drug resistance profile) [4]: DOR-R, IPM-R, MEM-R, FEP-R,
- Phenotype (drug resistance profile) [5]: R
- Phenotype (drug resistance profile) [6]: DOR-R, IPM-R, MEM-R, FEP-R,
- Phenotype (drug resistance profile) [7]: DOR-R, IPM-R, MEM-R, FEP-R,
- Phenotype (drug resistance profile) [8]: R
- Phenotype (drug resistance profile) [9]: R
- Phenotype (drug resistance profile) [10]: S
